The values that follow are results of earlier work, collected in patent US20180214412A1, “IMMEDIATE RELEASE CANNABINOID FORMULATIONS” (CannTab Therapeutics Limited, priority 2017, published 2018).

`CCCCCc1cc(O)c2c(c1)OC(C)(C)[C@@H]1CCC(C)=C[C@@H]21` [Dronabinol, (−)-trans-Δ9-tetrahydrocannabinol]: the solubility in water result is reported as “insoluble”.
